From the supplement of paper PMC10849652
This is one part of the list.

Amino acid sequences for entries named in this document (tags omitted). A change or cut given only in a name is not applied to a line headed by its entry.
UniProt Q8IYH5: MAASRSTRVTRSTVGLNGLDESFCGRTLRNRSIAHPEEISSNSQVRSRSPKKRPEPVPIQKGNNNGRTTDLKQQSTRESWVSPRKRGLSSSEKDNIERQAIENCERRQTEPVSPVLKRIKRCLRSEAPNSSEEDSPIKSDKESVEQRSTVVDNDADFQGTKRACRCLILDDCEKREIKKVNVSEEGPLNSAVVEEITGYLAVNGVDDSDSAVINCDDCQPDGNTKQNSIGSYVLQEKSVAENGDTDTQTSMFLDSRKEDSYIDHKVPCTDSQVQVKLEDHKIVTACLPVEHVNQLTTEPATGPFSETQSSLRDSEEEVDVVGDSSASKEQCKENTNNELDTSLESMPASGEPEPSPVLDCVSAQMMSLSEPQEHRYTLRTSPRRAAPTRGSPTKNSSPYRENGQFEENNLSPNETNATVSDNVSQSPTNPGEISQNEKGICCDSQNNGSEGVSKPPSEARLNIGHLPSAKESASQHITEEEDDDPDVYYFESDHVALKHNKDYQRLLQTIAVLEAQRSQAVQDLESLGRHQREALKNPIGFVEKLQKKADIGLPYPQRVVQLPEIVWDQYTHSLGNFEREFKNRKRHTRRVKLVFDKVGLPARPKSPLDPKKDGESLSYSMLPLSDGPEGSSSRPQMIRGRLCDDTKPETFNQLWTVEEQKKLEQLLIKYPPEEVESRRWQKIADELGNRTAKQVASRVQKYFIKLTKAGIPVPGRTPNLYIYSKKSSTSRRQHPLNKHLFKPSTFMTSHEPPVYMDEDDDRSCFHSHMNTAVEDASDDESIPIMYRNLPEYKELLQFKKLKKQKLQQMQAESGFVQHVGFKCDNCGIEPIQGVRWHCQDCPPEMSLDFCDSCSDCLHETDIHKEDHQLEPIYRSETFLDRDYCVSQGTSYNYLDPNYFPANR
UniProt Q9C0D3: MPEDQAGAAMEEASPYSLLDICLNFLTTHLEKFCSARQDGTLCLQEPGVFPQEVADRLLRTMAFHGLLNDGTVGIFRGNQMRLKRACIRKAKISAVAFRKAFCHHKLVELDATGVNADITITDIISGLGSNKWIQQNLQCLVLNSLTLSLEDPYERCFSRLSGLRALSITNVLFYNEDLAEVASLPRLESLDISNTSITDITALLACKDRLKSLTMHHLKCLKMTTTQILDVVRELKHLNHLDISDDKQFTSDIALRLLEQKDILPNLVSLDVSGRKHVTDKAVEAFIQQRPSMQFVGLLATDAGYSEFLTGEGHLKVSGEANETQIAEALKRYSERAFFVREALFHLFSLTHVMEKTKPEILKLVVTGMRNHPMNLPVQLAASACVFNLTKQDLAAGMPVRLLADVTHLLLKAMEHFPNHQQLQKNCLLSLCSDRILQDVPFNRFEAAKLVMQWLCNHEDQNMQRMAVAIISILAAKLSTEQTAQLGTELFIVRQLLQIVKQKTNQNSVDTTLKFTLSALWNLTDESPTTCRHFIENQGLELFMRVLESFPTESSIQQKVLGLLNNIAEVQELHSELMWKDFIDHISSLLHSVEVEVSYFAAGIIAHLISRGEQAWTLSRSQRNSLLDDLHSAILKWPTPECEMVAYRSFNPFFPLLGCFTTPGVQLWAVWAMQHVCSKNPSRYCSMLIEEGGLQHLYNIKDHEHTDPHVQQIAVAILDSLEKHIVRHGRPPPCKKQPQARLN
UniProt P52747: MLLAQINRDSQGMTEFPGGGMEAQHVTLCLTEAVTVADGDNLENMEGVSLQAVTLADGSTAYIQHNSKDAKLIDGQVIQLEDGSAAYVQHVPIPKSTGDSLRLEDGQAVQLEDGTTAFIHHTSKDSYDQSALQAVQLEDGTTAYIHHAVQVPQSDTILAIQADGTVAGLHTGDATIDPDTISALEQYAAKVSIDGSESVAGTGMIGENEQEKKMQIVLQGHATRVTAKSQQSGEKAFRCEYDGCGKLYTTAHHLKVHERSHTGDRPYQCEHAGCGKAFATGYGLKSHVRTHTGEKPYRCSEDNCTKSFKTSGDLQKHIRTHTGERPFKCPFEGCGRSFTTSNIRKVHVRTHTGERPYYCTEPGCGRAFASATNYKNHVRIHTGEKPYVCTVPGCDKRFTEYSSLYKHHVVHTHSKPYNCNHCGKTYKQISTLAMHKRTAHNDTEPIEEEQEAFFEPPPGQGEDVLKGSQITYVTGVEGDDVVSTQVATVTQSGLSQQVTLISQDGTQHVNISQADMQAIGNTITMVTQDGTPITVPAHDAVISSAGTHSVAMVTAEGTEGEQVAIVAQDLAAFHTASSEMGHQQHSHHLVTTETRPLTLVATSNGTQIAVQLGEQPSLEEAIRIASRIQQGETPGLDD
UniProt Q9P2E3: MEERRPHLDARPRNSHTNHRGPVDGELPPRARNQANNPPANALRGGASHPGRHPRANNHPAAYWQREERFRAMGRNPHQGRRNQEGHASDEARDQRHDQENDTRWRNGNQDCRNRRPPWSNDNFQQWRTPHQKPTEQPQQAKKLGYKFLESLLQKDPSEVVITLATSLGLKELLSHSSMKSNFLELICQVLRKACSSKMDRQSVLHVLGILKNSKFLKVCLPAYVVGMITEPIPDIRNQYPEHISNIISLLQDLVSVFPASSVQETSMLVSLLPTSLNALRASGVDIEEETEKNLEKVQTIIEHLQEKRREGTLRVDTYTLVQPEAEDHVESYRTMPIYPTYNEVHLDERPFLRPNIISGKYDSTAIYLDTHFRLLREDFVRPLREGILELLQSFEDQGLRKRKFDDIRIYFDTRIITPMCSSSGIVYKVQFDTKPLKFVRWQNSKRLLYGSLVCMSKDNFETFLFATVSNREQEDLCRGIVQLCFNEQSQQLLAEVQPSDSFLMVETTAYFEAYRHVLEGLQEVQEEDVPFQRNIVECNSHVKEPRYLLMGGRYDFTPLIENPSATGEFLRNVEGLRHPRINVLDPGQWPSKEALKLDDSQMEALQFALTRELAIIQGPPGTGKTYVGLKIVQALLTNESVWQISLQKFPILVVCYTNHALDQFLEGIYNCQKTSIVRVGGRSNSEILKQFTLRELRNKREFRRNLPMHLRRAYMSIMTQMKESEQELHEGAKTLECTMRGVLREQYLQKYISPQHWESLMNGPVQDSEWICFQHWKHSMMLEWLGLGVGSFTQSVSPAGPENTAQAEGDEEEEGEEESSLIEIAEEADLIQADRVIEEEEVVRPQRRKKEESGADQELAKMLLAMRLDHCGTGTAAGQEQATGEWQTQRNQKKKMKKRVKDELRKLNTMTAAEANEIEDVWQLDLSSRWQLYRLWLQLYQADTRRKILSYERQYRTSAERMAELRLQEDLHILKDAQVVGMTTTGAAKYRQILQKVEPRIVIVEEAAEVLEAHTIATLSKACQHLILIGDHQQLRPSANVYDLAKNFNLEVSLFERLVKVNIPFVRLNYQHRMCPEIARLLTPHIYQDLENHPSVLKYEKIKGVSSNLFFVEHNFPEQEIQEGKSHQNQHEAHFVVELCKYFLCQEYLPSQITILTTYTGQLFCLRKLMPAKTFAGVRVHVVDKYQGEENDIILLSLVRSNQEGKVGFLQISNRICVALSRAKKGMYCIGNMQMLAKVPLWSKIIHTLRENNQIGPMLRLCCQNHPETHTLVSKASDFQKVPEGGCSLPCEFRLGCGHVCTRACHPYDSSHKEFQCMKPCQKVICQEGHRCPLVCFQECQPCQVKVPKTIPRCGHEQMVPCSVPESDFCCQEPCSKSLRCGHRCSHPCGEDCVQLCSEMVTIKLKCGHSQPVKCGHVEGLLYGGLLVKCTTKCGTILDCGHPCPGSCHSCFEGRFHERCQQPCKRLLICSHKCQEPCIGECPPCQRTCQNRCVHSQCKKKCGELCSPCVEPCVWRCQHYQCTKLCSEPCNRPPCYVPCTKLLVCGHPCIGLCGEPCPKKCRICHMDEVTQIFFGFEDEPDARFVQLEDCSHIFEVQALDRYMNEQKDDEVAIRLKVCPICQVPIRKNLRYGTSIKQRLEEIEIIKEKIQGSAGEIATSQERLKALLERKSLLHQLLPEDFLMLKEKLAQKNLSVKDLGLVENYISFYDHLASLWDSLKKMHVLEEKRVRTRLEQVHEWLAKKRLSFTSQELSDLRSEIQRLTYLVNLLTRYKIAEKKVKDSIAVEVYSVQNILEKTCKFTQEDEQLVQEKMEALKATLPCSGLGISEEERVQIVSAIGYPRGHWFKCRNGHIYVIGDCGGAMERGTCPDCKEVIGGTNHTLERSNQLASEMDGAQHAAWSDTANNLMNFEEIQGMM
UniProt A7E2V4, whole entry, looked up: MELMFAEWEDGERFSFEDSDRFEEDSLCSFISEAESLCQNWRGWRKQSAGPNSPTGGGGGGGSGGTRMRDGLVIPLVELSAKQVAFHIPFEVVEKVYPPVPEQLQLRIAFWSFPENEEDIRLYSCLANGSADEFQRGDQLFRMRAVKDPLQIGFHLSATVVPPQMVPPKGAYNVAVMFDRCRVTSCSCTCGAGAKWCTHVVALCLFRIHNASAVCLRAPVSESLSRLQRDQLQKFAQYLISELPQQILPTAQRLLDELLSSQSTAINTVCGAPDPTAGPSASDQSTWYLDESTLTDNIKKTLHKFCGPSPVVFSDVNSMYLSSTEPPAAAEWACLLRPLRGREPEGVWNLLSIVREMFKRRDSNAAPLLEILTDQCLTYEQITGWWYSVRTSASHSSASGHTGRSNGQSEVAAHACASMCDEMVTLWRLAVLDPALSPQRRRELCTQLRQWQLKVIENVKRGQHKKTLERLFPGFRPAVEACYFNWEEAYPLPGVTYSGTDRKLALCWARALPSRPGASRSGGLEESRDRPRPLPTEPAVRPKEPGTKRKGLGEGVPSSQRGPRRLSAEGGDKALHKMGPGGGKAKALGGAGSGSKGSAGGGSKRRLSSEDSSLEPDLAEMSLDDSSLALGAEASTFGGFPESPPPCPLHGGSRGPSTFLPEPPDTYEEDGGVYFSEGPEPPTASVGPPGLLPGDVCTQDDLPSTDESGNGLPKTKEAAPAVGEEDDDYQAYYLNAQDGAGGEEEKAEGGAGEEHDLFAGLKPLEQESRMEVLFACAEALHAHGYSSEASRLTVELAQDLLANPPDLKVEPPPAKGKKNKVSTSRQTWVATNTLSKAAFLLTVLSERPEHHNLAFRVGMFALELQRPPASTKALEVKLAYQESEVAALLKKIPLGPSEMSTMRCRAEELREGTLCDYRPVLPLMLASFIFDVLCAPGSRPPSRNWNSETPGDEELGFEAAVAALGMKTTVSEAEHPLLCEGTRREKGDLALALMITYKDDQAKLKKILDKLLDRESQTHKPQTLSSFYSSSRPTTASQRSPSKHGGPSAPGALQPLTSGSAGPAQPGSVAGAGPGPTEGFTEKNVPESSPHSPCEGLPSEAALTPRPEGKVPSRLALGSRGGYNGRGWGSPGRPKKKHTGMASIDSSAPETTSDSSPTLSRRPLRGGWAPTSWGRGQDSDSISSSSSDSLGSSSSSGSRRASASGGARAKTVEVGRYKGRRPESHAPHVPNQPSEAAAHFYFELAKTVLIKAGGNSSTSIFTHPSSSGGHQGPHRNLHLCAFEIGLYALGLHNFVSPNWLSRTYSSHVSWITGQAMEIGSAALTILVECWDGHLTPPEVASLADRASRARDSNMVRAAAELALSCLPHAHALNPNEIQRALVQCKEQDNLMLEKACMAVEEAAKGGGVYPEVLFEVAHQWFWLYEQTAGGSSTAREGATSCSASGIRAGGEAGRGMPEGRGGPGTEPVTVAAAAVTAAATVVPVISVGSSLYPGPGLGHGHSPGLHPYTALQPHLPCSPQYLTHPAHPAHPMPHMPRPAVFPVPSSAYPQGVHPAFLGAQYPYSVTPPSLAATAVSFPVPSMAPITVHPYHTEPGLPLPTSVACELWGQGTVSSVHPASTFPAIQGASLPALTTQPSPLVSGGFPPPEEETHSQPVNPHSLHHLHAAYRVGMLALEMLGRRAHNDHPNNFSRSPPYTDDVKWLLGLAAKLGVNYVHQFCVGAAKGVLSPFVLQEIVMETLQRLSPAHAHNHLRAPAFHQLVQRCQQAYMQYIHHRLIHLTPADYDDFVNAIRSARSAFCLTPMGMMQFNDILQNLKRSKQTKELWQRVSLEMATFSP

How the values were obtained:
Assay in all cases: log2 fold change, soluble protein after heating vs DMSO (PISA); higher = thermal stabilisation; K562 lysate, 10 uM; active = over 0.2 and 3.5 SD of the protein, either way, in both replicates (recomputed)
[1] = compound: C1=CC=C(C=C1)[C@H](COC2=CC3=C(C=C2)NC(=O)N3)NC(=O)C4=CC=CN(C4=O)CC5=CC(=C(C=C5)F)F
How it was run: (§1)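 Values give the log-two fold change in thermal stability against solvent controls, from duplicates. Crude K562 extract at 1 mg/mL protein, made by dounce homogenisation in PBS pH 7.4 with 1 mM MgCl2, was treated with 10 μM compound for 30 min. After 3 min heating across 48°C-58°C, aliquots were pooled, adjusted to 0.5% NP-40 at 4°C and centrifuged at 21,000xg for 90 min. The supernatant was measured by TMTpro 16plex LC-MS/MS with channel sums equalised.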

[2] = compound: CC1=C(SC2=C1C(=N[C@H](C3=NN=C(N32)C)CC(=O)N)C4=CC=C(C=C4)Cl)C
How it was run: as §1

[3] = compound: CC1=C2C(=CC=C1)N=C(N(C2=O)C3=CC=CC=C3C)CN4C=NC5=C(N=CN=C54)N
How it was run: as §1

[4] = compound: Cc1sc2c(c1C)C(c1ccc(Cl)cc1)=N[C@@H](CC(=O)OC(C)(C)C)c1nnc(C)n1-2
How it was run: as §1

[5] = compound: c1ccc([C@@H]2C[C@H]2NC2CCNCC2)cc1
How it was run: as §1

Measured: log2 fold change

ZZZ3 (UniProt Q8IYH5)
inactive: [1] -0.129 | [2] -0.016 | [3] 0.057 | [4] 0.035 | [5] -0.049

ZYG11B (UniProt Q9C0D3)
inactive: [1] 0.028 | [2] 0.026 | [3] 0.029 | [4] -0.015 | [5] -0.005

ZNF143 (UniProt P52747)
inactive: [1] 0.04 | [2] -0.059 | [3] -0.014 | [4] -0.045 | [5] -0.008

hCG_1984214 (UniProt I3L0E3)
inactive: [1] 0.006 | [2] 0.001 | [3] 0.054 | [4] 0.099 | [5] -0.007

ZNFX1 (UniProt Q9P2E3)
inactive: [1] 0.018 | [2] 0.062 | [3] 0.072 | [4] 0.051 | [5] 0.086

ZSWIM8 isoform 4 (UniProt A7E2V4)
inactive: [1] 0.076 | [2] -0.038 | [3] 0.071 | [4] 0.013 | [5] 0.03
